Reference: patent US8809401B2, “Composition with improved skin penetration for transdermal delivery of tolterodine” (priority 2010, dated 2014)

Test: Skin penetration test (Franz cell)
Format: in vitro ADME
Details: patch with vs without lidocaine free base, pig skin, up to 42 hr

SMILES: CCN(CC)CC(=O)Nc1c(C)cccc1C [lidocaine]
- Effect on skin penetration of tolterodine: effective in promoting the skin penetration of tolterodine
